This assay deals with SMARCC1 (human), core SWI/SNF subunit (human (endogenous in G401)) (UniProt Q92922). Kind of assay: co-IP; anti-SMARCC1 on Dynabeads, G401 rhabdoid cells with or without doxycycline-induced SMARCB1 re-expression (legend: nuclear extracts), 4 °C overnight, immunoblot for P300; IgG as control. A general note: In western blotting, separated proteins are transferred to a membrane and probed.

By UniProt entry, the sequences of proteins in these tests, tags left out.
UniProt Q92922: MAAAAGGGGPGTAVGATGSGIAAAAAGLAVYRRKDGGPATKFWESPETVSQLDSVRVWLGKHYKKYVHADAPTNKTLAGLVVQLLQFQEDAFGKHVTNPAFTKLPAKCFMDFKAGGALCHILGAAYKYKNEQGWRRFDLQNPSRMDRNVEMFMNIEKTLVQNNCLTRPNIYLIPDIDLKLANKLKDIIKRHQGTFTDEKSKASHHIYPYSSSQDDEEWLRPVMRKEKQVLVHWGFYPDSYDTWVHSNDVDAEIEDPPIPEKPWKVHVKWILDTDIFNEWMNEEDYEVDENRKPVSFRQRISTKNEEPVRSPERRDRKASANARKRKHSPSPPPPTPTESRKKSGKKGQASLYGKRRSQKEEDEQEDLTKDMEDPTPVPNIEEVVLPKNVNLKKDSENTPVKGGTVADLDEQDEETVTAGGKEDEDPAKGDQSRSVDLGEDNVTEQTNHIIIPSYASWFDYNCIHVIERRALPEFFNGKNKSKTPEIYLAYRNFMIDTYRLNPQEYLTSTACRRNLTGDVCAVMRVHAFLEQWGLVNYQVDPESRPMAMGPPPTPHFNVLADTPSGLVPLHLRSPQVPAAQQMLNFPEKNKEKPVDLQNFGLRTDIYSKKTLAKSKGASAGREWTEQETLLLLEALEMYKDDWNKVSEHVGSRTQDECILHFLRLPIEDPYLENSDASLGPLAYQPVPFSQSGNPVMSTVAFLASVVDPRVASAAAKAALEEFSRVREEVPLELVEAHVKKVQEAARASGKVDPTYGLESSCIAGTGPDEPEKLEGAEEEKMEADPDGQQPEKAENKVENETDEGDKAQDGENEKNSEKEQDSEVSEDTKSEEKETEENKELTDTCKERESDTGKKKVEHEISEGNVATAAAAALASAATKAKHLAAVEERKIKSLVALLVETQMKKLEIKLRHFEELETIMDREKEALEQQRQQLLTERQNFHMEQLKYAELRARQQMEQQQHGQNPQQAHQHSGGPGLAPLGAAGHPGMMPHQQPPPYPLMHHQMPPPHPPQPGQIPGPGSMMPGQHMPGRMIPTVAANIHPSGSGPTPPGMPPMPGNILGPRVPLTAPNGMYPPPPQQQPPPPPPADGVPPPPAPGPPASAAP
UniProt Q09472: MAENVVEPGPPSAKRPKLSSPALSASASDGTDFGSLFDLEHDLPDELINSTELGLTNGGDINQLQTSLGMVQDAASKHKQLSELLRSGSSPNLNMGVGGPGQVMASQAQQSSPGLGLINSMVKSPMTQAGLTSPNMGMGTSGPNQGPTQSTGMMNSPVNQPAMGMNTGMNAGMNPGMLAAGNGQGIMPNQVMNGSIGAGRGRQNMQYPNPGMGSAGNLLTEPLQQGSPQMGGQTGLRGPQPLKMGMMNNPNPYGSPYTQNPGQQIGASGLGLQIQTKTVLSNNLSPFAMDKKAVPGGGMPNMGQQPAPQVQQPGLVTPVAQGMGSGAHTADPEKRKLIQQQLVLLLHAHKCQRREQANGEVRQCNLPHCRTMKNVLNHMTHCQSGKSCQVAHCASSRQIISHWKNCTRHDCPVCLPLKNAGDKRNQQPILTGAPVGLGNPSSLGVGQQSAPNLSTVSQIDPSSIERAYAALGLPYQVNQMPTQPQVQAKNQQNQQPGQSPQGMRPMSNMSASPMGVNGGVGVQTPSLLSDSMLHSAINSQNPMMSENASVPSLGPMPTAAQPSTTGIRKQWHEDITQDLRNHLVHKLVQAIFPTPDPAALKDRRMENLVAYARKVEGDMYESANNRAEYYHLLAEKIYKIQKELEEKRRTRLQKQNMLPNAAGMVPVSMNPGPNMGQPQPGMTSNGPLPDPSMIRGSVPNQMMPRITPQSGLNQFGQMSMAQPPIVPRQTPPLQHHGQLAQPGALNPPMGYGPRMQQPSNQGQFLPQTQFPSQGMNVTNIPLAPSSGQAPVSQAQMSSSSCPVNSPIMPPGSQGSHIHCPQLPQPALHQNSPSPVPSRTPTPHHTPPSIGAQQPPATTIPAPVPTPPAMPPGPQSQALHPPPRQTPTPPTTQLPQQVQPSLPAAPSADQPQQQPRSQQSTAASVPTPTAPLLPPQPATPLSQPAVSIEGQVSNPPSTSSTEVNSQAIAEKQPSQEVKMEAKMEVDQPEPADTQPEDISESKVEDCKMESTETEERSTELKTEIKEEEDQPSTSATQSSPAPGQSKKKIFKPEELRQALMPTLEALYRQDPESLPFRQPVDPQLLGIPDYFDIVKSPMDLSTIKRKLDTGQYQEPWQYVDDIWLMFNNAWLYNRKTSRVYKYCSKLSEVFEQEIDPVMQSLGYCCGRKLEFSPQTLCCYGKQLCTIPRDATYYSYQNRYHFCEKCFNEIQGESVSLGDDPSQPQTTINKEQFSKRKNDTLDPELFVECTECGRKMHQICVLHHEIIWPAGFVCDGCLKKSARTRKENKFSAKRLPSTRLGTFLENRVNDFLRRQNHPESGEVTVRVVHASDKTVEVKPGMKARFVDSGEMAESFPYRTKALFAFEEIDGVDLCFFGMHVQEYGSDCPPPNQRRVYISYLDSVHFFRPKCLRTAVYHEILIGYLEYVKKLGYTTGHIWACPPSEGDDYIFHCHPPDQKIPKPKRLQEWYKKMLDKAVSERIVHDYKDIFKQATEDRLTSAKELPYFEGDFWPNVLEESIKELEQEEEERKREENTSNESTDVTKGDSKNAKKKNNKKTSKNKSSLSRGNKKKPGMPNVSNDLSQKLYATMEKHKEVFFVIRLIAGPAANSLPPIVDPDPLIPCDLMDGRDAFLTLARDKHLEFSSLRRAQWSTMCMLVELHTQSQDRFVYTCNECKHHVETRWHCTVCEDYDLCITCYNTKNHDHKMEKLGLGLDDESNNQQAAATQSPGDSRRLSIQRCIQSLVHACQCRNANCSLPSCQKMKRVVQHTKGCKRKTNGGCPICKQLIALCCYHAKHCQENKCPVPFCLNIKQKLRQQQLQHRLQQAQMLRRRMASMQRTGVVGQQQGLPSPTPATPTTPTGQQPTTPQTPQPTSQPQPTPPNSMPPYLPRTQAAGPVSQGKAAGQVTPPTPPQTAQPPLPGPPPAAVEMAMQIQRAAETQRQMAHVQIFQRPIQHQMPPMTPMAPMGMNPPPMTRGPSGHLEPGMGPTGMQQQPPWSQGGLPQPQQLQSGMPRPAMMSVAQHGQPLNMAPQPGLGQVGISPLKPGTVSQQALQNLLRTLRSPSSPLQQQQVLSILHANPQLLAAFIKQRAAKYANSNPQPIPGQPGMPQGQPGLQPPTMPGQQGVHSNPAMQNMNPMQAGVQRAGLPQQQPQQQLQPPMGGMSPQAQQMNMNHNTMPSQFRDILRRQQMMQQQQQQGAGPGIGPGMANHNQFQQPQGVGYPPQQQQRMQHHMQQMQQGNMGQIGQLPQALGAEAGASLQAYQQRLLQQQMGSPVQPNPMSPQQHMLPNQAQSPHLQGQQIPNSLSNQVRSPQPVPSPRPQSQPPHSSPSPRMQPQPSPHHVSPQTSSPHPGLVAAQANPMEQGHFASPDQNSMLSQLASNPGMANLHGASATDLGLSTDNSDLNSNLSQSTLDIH

These are yes or no findings as the source states them, for the method shown. Binding seen in cells or lysates may run through a third protein. Some entries that bind do so weakly or less than the wild type.

Regarding “p300 histone acetyltransferase (human) (from UniProt Q09472 1-2414)”, the binding result is listed as “binds”.

Source of the values: PMC5343482.
